PubChem BioAssay AID1259308 – NCATS | 2017

- Aim: 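Genes whose loss raises luciferase production in HEK293 cells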 (primary screen)
- System: human HEK293 embryonic kidney cells stably expressing firefly luciferase (HEK-CMV-Luc2-Hygro)
- Reagents: single siRNA against human genes, 0.8 pmol siRNA per well
- Duration: 72 h
- Measurement: 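Reporter luminescence and viable-cell signal on separate replicate plates, given as percent of non-targeting control and median/MAD z-scores, plus per-cell luciferase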
- Scale: total luciferase, z-score and total luciferase, % of control: higher = more reporter protein produced; luciferase per cell, z-score: higher = more reporter output per viable cell; viable cells, % of control: higher = more viable cells
- Rule for the call: 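An siRNA counts as active if its total luciferase robust z-score exceeds 3; genes with two or more such siRNAs out of three were retested with fresh siRNAs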
- Calls: active = raised luciferase; inactive = no rise
The whole screen tested about 59,000 reagents; below is an unselected part. About 1,510 of all reagents (2.6%) count as active. 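Calls use total luciferase alone and ignore viability, so some active siRNAs may act by altering cell number.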 Entries without a mark were called inactive. Reagents against one gene are numbered here. No sequences are given here.

total luciferase, z-score | total luciferase, % of control | luciferase per cell, z-score | viable cells, % of control | Target gene | siRNA no.
1.26 | 107 | 0.655 | 101 | TMEM14A | 1
0.669 | 95.2 | 1.12 | 79.1 | TMEM14A | 2
1.71 | 116 | 0.302 | 120 | TMEM14A | 3
0.112 | 84.1 | 0.636 | 79.5 | EDN3 | 1
-0.165 | 78.6 | -0.831 | 109 | EDN3 | 2
0.718 | 96.2 | 2.33 | 58.1 | EDN3 | 3
2.28 | 127 | 1.71 | 90.6 | MYADM | 1
-0.129 | 79.3 | -0.113 | 91.3 | MYADM | 2
-0.052 | 80.9 | 1.74 | 57.1 | MYADM | 3
0.866 | 99.1 | 0.676 | 92.7 | H1-1 | 1
-0.754 | 66.9 | 0.0758 | 73.3 | H1-1 | 2
-1.18 | 58.5 | -0.274 | 70.2 | H1-1 | 3
3.89 (active) | 159 | 3.38 | 73.1 | H2AC1 | 1
-0.66 | 68.8 | 0.0927 | 75 | H2AC1 | 2
0.612 | 94.1 | 0.626 | 89.1 | H2AC1 | 3
-1.96 | 42.9 | -1.64 | 73.8 | MEAK7 | 1
0.148 | 84.8 | -0.382 | 105 | MEAK7 | 2
0.383 | 89.5 | -0.493 | 114 | MEAK7 | 3
-0.385 | 74.2 | -0.755 | 101 | FAM187B | 1
1.25 | 107 | 0.785 | 96.9 | FAM187B | 2
-1.33 | 55.4 | -2.19 | 110 | FAM187B | 3
0.313 | 88.1 | 0.365 | 89.4 | TBC1D22A | 1
-0.304 | 75.8 | -0.605 | 99.4 | TBC1D22A | 2
1.48 | 111 | 2.2 | 69.7 | TBC1D22A | 3

3 of these entries, set out differently:
MEAK7 #1
- total luciferase, z-score: -1.96
- total luciferase, % of control: 42.9
- luciferase per cell, z-score: -1.64
- viable cells, % of control: 73.8

MEAK7 #2
- total luciferase, z-score: 0.148
- total luciferase, % of control: 84.8
- luciferase per cell, z-score: -0.382
- viable cells, % of control: 105

MEAK7 #3
- total luciferase, z-score: 0.383
- total luciferase, % of control: 89.5
- luciferase per cell, z-score: -0.493
- viable cells, % of control: 114
